Data published in paper PMC9673352.
Results are given in words; binding and its absence hold for the method and conditions named. Binding seen in cells or lysates may run through a third protein. These calls come from enrichment with a bait or labelling near it, and not all partners need be listed.

B1: Ckb1, regulatory subunit of protein kinase CK2 (endogenous) (protein, UniProt P43639 1-278)
chain: MSQEFVEDYSRTGSSDDEDSGAYDEWIPSFCSRFGHEYFCQVPTEFIEDDFNMTSLSQEVPHYRKALDLILDLEAMSDEEEDEDDVVEEDEVDQEMQSNDGHDEGKRRNKSPVVNKSIIEHAAEQLYGLIHARFILTKPGLQAMAEKFDHKEFGTCPRYYCNGMQLLPCGLSDTVGKHTVRLYCPSCQDLYLPQSSRFLCLEGAFWGTSFPGVFLKHFKELEEYVERKSKESYELKVFGFRINDEAVSGPRMKWLRQYPSTEEDWEEFAKCEFETPAV
B2: Abf1, general regulatory factor (protein, UniProt P14164 1-731)
chain: MDKLVVNYYEYKHPIINKDLAIGAHGGKKFPTLGAWYDVINEYEFQTRCPIILKNSHRNKHFTFACHLKNCPFKVLLSYAGNAASSETSSPSANNNTNPPGTPDHIHHHSNNMNNEDNDNNNGSNNKVSNDSKLDFVTDDLEYHLANTHPDDTNDKVESRSNEVNGNNDDDADANNIFKQQGVTIKNDTEDDSINKASIDRGLDDESGPTHGNDSGNHRHNEEDDVHTQMTKNYSDVVNDEDINVAIANAVANVDSQSNNKHDGKDDDATNNNDGQDNNTNNDHNNNSNINNNNVGSHGISSHSPSSIRDTSMNLDVFNSATDDIPGPFVVTKIEPYHSHPLEDNLSLGKFILTKIPKILQNDLKFDQILESSYNNSNHTVSKFKVSHYVEESGLLDILMQRYGLTAEDFEKRLLSQIARRITTYKARFVLKKKKMGEYNDLQPSSSSNNNNNNDGELSGTNLRSNSIDYAKHQEISSAGTSSNTTKNVNNNKNDSNDDNNGNNNNDASNLMESVLDKTSSHRYQPKKMPSVNKWSKPDQITHSDVSMVGLDESNDGGNENVHPTLAEVDAQEARETAQLAIDKINSYKRSIDDKNGDGHNNSSRNVVDENLINDMDSEDAHKSKRQHLSDITLEERNEDDKLPHEVAEQLRLLSSHLKEVENLHQNNDDDVDDVMVDVDVESQYNKNTTHHNNHHSQPHHDEEDVAGLIGKADDEEDLSDENIQPELRGQ
B3: AC40 subunit of RNA polymerase I and III (protein, UniProt P07703 1-335)
chain: MSNIVGIEYNRVTNTTSTDFPGFSKDAENEWNVEKFKKDFEVNISSLDAREANFDLINIDTSIANAFRRIMISEVPSVAAEYVYFFNNTSVIQDEVLAHRIGLVPLKVDPDMLTWVDSNLPDDEKFTDENTIVLSLNVKCTRNPDAPKGSTDPKELYNNAHVYARDLKFEPQGRQSTTFADCPVVPADPDILLAKLRPGQEISLKAHCILGIGGDHAKFSPVSTASYRLLPQINILQPIKGESARRFQKCFPPGVIGIDEGSDEAYVKDARKDTVSREVLRYEEFADKVKLGRVRNHFIFNVESAGAMTPEEIFFKSVRILKNKAEYLKNCPITQ
B4: Reb1, general regulatory factor (protein, UniProt P21538 1-810)
chain: MPSGHNDKNANQESVEEAVLKYVGVGLDHQNHDPQLHTKDLENKHSKKQNIVESSSDVDVNNNDDSNRNEDNNDDSENISALNANESSSNVDHANSNEQHNAVMDWYLRQTAHNQQDDEDDENNNNTDNGNDSNNHFSQSDIVVDDDDDKNKKDAGVGVDDDHQSMAMAAVAAAYTLSKNNNNNNSIANDSNSRKRQHDNGNNHENSQKKRKNNNDDDDRQIGNVDPELTTLGDADDNDTNNDVIDRDQLVHKAIIDADSITQHPDFQQYLNTAADTDDNEKLKHIKDHLMRTHGLNHQNKNHNDDTDDLSNSTKQYSELQKDSMLDSSLNKSRNYMEVLPKVISQDTQPHQQKSPSHDNEAGSVDNSEISQLLQSAATKASSLVSLSSSSATPSTSRSNNSKAFDKAEDAALERFINEYEAIERLTRQQVCERIWSSDRPKDNFWNNIYKVLPYRSSSSIYKHMRRKYHIFEQRGKWTAEEEQELAKLCAEKEGQWAEIGKTLGRMPEDCRDRWRNYVKCGTNRASNRWSVEEEELLKKVISDMLEEAQQQQSQLHPNLLEEEQHLLQDDQNDHRNNDEDDDDTASAAAAAAAAIQEQQQLLQQKQQDDDDAIAAAAAAASSSLGDNKDEDKPHDSLGIQLDDNSQNSMVPAPSATSTHSKSLSNTIRRHNNKLRKSLMGNGKLDFKDIINWTIVSERMGGTRSRIQCRYKWNKLVKREAIAKIQTVKDDDMLWIFEKLRDLGITEDSQVDWDELAALKPGMKLNGLELKLCYERMKKKVKGYKQKSINEISKELVDYFSSNISMKTEN
B5: Rap1, general regulatory factor (protein, UniProt P11938 1-827)
chain: MSSPDDFETAPAEYVDALDPSMVVVDSGSAAVTAPSDSAAEVKANQNEENTGATAAETSEKVDQTEVEKKDDDDTTEVGVTTTTPSIADTAATANIASTSGASVTEPTTDDTAADEKKEQVSGPPLSNMKFYLNRDADAHDSLNDIDQLARLIRANGGEVLDSKPRESKENVFIVSPYNHTNLPTVTPTYIKACCQSNSLLNMENYLVPYDNFREVVDSRLQEESHSNGVDNSNSNSDNKDSIRPKTEIISTNTNGATEDSTSEKVMVDAEQQARLQEQAQLLRQHVSSTASITSGGHNDLVQIEQPQKDTSNNNNSNVNDEDNDLLTQDNNPQTADEGNASFQAQRSMISRGALPSHNKASFTDEEDEFILDVVRKNPTRRTTHTLYDEISHYVPNHTGNSIRHRFRVYLSKRLEYVYEVDKFGKLVRDDDGNLIKTKVLPPSIKRKFSADEDYTLAIAVKKQFYRDLFQIDPDTGRSLITDEDTPTAIARRNMTMDPNHVPGSEPNFAAYRTQSRRGPIAREFFKHFAEEHAAHTENAWRDRFRKFLLAYGIDDYISYYEAEKAQNREPEPMKNLTNRPKRPGVPTPGNYNSAAKRARNYSSQRNVQPTANAASANAAAAAAAAASNSYAIPENELLDEDTMNFISSLKNDLSNISNSLPFEYPHEIAEAIRSDFSNEDIYDNIDPDTISFPPKIATTDLFLPLFFHFGSTRQFMDKLHEVISGDYEPSQAEKLVQDLCDETGIRKNFSTSILTCLSGDLMVFPRYFLNMFKDNVNPPPNVPGIWTHDDDESLKSNDQEQIRKLVKKHGTGRMEMRKRFFEKDLL
B6: Cka2, catalytic subunit of protein kinase CK2 (endogenous) (enzyme, UniProt P19454 1-339)
chain: MPLPPSTLNQKSNRVYSVARVYKNACEERPQEYWDYEQGVTIDWGKISNYEIINKIGRGKYSEVFSGRCIVNNQKCVIKVLKPVKMKKIYRELKILTNLTGGPNVVGLYDIVQDADSKIPALIFEEIKNVDFRTLYPTFKLPDIQYYFTQLLIALDYCHSMGIMHRDVKPQNVMIDPTERKLRLIDWGLAEFYHPGVDYNVRVASRYHKGPELLVNLNQYDYSLDLWSVGCMLAAIVFKKEPFFKGSSNPDQLVKIATVLGTKELLGYLGKYGLHLPSEYDNIMRDFTKKSWTHFITSETKLAVPEVVDLIDNLLRYDHQERLTAKEAMDHKFFKTKFE
B7: Ckb2, regulatory subunit of protein kinase CK2 (endogenous) (protein, UniProt P38930 1-258)
chain: MGSRSENVGTVTREGSRVEQDDVLMDDDSDSSEYVDMWIDLFLGRKGHEYFCDVDPEYITDRFNLMNLQKTVSKFSYVVQYIVDDLDDSILENMTHARLEQLESDSRKLYGLIHARYIITIKGLQKMYAKYKEADFGRCPRVYCNLQQLLPVGLHDIPGIDCVKLYCPSCEDLYIPKSSRHSSIDGAYFGTSFPGMFLQAFPDMVPKHPTKRYVPKIFGFELHKQAQLTRWQELQRLKLVEKLESKDVDLTKSGGFKT

Biological target: Ty1 integrase with a C-terminal histidine-biotin-histidine (HBH) tag (S. cerevisiae)
Assay: affinity purification with mass spectrometry; TChAP: cells cross-linked in vivo with 1% formaldehyde, chromatin solubilised and sheared in 6 M urea buffer, IN-HBH purified on nickel then streptavidin beads under denaturing conditions; compared with a strain expressing untagged IN

binding, binds:
B1
B2
B3
B4
B5
B6
B7
